Article PMC12393484
Results are given in words; binding and its absence hold for the method and conditions named. For some assays here: Binding seen in cells or lysates may run through a third protein. Some results given as binding are weak or reduced against the parent protein; the word gives no strength.

Amino acid sequences for entries named in this document (tags omitted).
UniProt P35713: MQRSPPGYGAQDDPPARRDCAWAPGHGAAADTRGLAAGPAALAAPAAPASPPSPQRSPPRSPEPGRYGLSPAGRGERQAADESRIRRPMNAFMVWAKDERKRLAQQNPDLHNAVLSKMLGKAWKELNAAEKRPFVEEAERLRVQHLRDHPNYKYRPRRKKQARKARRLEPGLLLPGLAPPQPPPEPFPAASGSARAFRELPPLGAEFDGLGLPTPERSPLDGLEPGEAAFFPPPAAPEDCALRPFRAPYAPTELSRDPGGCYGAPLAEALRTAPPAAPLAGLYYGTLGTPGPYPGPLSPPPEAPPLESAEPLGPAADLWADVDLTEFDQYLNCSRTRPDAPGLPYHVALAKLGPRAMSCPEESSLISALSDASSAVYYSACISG
UniProt O14497: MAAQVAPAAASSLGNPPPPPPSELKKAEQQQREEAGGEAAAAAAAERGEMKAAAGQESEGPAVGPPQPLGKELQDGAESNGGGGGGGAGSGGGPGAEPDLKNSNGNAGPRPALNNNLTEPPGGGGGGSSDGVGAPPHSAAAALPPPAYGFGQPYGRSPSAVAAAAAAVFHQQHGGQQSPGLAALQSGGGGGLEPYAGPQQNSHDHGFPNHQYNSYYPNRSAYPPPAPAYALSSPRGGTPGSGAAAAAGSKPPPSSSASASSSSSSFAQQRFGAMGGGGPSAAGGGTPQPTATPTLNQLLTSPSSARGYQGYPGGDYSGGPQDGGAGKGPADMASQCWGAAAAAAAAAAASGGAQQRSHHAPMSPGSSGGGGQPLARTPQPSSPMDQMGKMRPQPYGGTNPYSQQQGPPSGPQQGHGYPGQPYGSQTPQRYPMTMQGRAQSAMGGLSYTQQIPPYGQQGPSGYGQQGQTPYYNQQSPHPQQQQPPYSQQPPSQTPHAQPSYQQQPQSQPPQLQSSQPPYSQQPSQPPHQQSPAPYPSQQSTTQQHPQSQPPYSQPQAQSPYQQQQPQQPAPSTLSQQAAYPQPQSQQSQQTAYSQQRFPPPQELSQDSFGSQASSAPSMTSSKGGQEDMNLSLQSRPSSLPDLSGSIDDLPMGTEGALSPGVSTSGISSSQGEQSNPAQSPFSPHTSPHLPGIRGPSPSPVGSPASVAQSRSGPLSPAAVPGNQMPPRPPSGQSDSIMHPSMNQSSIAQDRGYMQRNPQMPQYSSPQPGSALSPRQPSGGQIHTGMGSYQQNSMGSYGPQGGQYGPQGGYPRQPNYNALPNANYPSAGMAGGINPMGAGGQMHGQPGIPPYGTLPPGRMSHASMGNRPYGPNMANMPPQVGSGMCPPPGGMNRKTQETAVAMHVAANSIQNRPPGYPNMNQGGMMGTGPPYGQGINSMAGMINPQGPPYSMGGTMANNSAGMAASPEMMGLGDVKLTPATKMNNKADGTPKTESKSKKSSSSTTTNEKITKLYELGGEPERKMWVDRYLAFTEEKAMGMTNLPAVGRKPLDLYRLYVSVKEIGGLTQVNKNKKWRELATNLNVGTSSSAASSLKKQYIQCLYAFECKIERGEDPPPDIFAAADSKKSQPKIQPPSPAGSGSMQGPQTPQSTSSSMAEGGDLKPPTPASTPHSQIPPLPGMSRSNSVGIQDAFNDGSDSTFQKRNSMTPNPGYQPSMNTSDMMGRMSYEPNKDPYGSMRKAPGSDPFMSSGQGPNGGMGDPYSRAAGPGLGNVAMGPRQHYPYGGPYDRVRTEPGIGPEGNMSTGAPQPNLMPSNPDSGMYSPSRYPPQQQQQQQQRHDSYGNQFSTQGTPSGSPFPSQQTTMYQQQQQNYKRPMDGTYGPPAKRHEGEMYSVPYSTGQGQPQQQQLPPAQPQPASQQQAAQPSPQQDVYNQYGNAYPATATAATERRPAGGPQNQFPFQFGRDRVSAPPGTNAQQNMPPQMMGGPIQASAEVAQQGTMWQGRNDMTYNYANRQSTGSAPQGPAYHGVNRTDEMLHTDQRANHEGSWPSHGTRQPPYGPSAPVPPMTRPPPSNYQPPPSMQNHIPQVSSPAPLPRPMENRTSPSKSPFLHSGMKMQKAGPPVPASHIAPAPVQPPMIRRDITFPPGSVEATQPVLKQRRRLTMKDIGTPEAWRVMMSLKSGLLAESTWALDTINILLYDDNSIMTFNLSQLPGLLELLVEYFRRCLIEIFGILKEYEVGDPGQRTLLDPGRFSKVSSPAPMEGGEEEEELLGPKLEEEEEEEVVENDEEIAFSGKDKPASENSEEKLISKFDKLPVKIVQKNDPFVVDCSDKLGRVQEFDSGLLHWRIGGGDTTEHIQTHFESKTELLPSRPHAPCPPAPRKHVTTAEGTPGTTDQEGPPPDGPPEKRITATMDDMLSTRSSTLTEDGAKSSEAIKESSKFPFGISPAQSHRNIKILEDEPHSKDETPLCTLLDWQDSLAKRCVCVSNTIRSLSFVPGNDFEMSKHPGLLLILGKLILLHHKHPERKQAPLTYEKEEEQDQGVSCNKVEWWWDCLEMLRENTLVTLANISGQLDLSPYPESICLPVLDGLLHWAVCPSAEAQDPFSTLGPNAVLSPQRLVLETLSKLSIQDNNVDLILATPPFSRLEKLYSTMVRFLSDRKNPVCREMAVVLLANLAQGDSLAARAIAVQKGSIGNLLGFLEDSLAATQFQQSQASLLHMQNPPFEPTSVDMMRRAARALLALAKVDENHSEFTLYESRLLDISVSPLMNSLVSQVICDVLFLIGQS
UniProt P51532: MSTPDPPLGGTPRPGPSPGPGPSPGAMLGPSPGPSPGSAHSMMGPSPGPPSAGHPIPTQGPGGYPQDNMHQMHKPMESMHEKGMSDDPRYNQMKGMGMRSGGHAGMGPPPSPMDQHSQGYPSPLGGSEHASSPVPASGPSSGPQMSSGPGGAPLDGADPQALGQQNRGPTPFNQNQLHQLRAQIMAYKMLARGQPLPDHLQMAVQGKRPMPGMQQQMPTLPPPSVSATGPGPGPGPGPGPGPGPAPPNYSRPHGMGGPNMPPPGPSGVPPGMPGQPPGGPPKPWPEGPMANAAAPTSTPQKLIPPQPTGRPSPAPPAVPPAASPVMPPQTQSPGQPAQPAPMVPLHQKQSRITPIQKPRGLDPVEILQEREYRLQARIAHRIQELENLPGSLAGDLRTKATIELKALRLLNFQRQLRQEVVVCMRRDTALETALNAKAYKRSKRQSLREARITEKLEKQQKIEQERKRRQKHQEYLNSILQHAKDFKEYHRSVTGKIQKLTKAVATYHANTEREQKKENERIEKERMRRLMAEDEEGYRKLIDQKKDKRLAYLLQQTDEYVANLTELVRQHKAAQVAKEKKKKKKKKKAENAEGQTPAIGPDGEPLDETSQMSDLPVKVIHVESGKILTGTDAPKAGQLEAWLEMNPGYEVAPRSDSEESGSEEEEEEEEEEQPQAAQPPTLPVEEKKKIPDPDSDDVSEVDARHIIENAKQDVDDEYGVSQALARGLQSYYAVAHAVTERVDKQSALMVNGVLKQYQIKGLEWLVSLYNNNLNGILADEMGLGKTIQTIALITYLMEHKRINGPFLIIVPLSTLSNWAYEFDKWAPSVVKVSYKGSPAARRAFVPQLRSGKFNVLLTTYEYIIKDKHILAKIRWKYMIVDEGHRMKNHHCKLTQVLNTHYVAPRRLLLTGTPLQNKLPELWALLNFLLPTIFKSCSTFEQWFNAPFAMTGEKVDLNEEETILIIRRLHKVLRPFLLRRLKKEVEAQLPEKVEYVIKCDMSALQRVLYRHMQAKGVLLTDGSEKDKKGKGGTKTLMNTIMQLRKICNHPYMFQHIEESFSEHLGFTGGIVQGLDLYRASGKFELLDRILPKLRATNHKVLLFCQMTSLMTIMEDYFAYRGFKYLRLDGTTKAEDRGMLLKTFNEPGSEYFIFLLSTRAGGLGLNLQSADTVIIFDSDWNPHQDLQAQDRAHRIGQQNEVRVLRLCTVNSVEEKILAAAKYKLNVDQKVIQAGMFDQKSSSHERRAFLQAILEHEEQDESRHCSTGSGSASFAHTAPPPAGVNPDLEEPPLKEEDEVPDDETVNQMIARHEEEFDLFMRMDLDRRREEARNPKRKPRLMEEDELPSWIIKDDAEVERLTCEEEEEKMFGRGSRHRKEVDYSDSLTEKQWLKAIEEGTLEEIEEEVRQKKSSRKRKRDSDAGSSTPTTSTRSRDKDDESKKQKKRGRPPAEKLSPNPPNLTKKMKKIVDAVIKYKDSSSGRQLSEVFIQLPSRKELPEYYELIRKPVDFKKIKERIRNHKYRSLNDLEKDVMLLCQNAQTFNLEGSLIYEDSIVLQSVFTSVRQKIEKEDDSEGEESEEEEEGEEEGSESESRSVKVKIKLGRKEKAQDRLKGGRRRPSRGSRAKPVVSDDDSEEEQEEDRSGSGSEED
UniProt Q9QR71: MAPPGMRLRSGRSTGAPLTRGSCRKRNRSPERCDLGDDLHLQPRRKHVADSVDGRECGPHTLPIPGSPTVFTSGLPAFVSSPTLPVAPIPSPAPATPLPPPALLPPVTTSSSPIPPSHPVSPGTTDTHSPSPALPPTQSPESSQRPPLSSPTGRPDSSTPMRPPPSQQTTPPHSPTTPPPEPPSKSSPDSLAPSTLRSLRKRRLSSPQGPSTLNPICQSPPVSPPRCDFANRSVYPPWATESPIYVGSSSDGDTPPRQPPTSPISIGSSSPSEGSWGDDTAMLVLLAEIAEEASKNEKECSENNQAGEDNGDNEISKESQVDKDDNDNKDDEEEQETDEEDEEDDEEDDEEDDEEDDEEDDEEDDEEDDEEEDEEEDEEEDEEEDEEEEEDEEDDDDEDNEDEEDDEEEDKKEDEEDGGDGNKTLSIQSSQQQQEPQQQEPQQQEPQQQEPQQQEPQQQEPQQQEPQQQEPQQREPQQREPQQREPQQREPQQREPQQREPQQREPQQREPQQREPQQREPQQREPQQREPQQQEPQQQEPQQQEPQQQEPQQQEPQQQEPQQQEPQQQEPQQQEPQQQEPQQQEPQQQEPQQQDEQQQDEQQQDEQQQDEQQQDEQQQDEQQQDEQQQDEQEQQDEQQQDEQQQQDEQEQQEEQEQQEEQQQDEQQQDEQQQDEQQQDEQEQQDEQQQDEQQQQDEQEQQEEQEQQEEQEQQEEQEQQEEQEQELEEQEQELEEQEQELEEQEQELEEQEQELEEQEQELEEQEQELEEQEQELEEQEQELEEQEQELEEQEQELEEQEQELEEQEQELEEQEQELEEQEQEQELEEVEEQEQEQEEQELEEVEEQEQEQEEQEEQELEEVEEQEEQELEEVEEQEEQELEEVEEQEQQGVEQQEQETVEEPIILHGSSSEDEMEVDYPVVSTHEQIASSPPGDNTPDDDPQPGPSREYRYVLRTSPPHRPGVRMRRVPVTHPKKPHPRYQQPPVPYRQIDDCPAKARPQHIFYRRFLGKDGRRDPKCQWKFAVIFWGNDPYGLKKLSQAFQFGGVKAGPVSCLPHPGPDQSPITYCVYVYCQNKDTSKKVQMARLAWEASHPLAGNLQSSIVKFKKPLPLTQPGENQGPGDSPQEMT

Assays:
[1] = biological target: SOX18 (endogenous) (human (endogenous in primary human dermal LECs)) (UniProt P35713); test: proximity ligation
Halo-tagged SOX18 = Halo-tagged SOX18 (UniProt P35713); test: Number and Brightness (N&B) fluorescence fluctuation analysis; live HeLa cell nuclei with HaloJF549-SOX18, 37 °C; treated with DMSO, Trichostatin A or Actinomycin D; brightness calibrated on monomeric HaloJF549-Sox7
[2] = biological target: ARID1A, core subunit of the SWI/SNF complex (human (endogenous in iSLK.219/SLK cells and primary human LECs)) (UniProt O14497); test: proximity ligation
[3] = biological target: BRG1, ATPase subunit of the SWI/SNF chromatin-remodeling complex (human (endogenous in iSLK.219/SLK cells and primary human LECs)) (UniProt P51532); test: proximity ligation
[4] = biological target: KSHV Latency-Associated Nuclear Antigen (LANA) (KSHV/HHV-8 (rKSHV.219)) (UniProt Q9QR71); test: proximity ligation

BRG1, ATPase subunit of the SWI/SNF chromatin-remodeling complex (from UniProt P51532 1-1647)
binding [1]: binds

Halo-tagged SOX18 (from UniProt P35713 1-384)
binding (Halo-tagged SOX18): binds

KSHV Latency-Associated Nuclear Antigen (LANA) (from UniProt Q9QR71 1-1129)
binding [2]: binds | binding [3]: binds

SOX18 (endogenous) (from UniProt P35713 1-384)
binding [4]: binds
